The exact form of at least one protein or probe is not confirmed.

The test system of the data set is His-NHR subunit of heterodimer + Trx-NHR subunit of heterodimer. In words: EMSA. Particulars: 5 mM Mg2+, mixed-tag heterodimer; EMSA: 25 mM HEPES-KOH pH 8.0, 25 mM NH4Cl, 5 mM MgCl2, 5 mM DTT, 4 C, 1 h, 6-10 uM RNA; recombinant protein; protein details: N-terminal His6,N-terminal thioredoxin-His.

As to “GGAUGUUGGCUUAGAAGCAGCCAUCAUUU [29 nt RNA wt A1067]”, the binding result is given as “binds”.

Source of the values: publication PMC4409310.
